Experimental data: PubChem BioAssay AID652272 (Drosophila RNAi Screening Center, 2013)

Purpose: 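Genes whose knock-down decreases or increases Hedgehog reporter output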 (primary screen)
System: Drosophila clone 8 (Cl8) cells
Knock-down reagent: long dsRNA against Drosophila genes
Detection: 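Firefly light from a Hedgehog-responsive ptc promoter reporter and Renilla reference light, both read on a plate reader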
Scale: firefly Hh reporter signal: higher = more ptc reporter light; Renilla reference signal: higher = more Renilla control light
Call rule: 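Called a hit if the two-replicate mean z-score lies below -2 or above +3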
Meaning of the calls: active = hit: reporter lowered or raised; inactive = not a hit
The screen tested about 21,000 reagents; shown is an unselected part of those that have a named target and a result. Of all reagents, 503 (2.4%) were called active. 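Raw plate light values, not normalised; calls rest on replicate z-scores that were not deposited; hits include reporter decreases as well as increases.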 A number with no mark means an inactive call. Reagents against one gene are numbered here. A plus sign joins genes that one reagent is predicted to hit. Not stated in the record: the amount of reagent, the time to read-out.

{"target gene":"Tsp66E (Tetraspanin 66E)","reagent no.":1,"firefly Hh reporter signal, replicate 1":34705,"firefly Hh reporter signal, replicate 2":50176,"Renilla reference signal, replicate 1":3145,"Renilla reference signal, replicate 2":3792}
{"target gene":"Jhbp11 (Juvenile hormone binding protein 11)","reagent no.":1,"firefly Hh reporter signal, replicate 1":62374,"firefly Hh reporter signal, replicate 2":1.06e5,"Renilla reference signal, replicate 1":1716,"Renilla reference signal, replicate 2":3403}
{"target gene":"CG31267","reagent no.":1,"firefly Hh reporter signal, replicate 1":89936,"firefly Hh reporter signal, replicate 2":1.09e5,"Renilla reference signal, replicate 1":2008,"Renilla reference signal, replicate 2":7557}
{"target gene":"CG10171","reagent no.":1,"firefly Hh reporter signal, replicate 1":1.42e5,"firefly Hh reporter signal, replicate 2":78184,"Renilla reference signal, replicate 1":5809,"Renilla reference signal, replicate 2":2213}
{"target gene":"CG4069","reagent no.":1,"firefly Hh reporter signal, replicate 1":1.15e5,"firefly Hh reporter signal, replicate 2":69373,"Renilla reference signal, replicate 1":4845,"Renilla reference signal, replicate 2":3360}
{"target gene":"CG13581","reagent no.":1,"firefly Hh reporter signal, replicate 1":74902,"firefly Hh reporter signal, replicate 2":61127,"Renilla reference signal, replicate 1":1517,"Renilla reference signal, replicate 2":5494}
{"target gene":"CG34232","reagent no.":1,"firefly Hh reporter signal, replicate 1":1.43e5,"firefly Hh reporter signal, replicate 2":1.91e5,"Renilla reference signal, replicate 1":3939,"Renilla reference signal, replicate 2":9819}
{"target gene":"inaC (inactivation no afterpotential C)","reagent no.":1,"firefly Hh reporter signal, replicate 1":85027,"firefly Hh reporter signal, replicate 2":74290,"Renilla reference signal, replicate 1":3692,"Renilla reference signal, replicate 2":3209}
{"target gene":"mura (murashka)","reagent no.":1,"firefly Hh reporter signal, replicate 1":41834,"firefly Hh reporter signal, replicate 2":73248,"Renilla reference signal, replicate 1":1545,"Renilla reference signal, replicate 2":2603}
{"target gene":"mura (murashka)","reagent no.":2,"firefly Hh reporter signal, replicate 1":22630,"firefly Hh reporter signal, replicate 2":16545,"Renilla reference signal, replicate 1":1089,"Renilla reference signal, replicate 2":709}
{"target gene":"Ltn1 (Listerin E3 ubiquitin protein ligase 1)","reagent no.":1,"firefly Hh reporter signal, replicate 1":57575,"firefly Hh reporter signal, replicate 2":60985,"Renilla reference signal, replicate 1":2109,"Renilla reference signal, replicate 2":2020}
{"target gene":"Ltn1 (Listerin E3 ubiquitin protein ligase 1)","reagent no.":2,"firefly Hh reporter signal, replicate 1":1.51e5,"firefly Hh reporter signal, replicate 2":1.39e5,"Renilla reference signal, replicate 1":5312,"Renilla reference signal, replicate 2":3936}
{"target gene":"Cf2 (Chorion factor 2)","reagent no.":1,"firefly Hh reporter signal, replicate 1":55640,"firefly Hh reporter signal, replicate 2":20722,"Renilla reference signal, replicate 1":1846,"Renilla reference signal, replicate 2":2868}
{"target gene":"CG43312","reagent no.":1,"firefly Hh reporter signal, replicate 1":2.55e5,"Renilla reference signal, replicate 1":5306}
{"target gene":"ppk25 (pickpocket 25)","reagent no.":1,"firefly Hh reporter signal, replicate 1":98967,"firefly Hh reporter signal, replicate 2":63328,"Renilla reference signal, replicate 1":2453,"Renilla reference signal, replicate 2":5493}
{"target gene":"nullo","reagent no.":1,"firefly Hh reporter signal, replicate 1":1.01e5,"firefly Hh reporter signal, replicate 2":2.11e5,"Renilla reference signal, replicate 1":3171,"Renilla reference signal, replicate 2":8076}
{"target gene":"CSN4 (COP9 signalosome subunit 4)","reagent no.":1,"firefly Hh reporter signal, replicate 1":1.10e5,"firefly Hh reporter signal, replicate 2":57541,"Renilla reference signal, replicate 1":2267,"Renilla reference signal, replicate 2":4608}
{"target gene":"CG3769","reagent no.":1,"firefly Hh reporter signal, replicate 1":1.07e5,"firefly Hh reporter signal, replicate 2":43908,"Renilla reference signal, replicate 1":2761,"Renilla reference signal, replicate 2":4073}
{"target gene":"Jasper (JIL-1 anchoring and stabilizing protein)","reagent no.":1,"firefly Hh reporter signal, replicate 1":81895,"firefly Hh reporter signal, replicate 2":59411,"Renilla reference signal, replicate 1":1783,"Renilla reference signal, replicate 2":1880}
{"target gene":"Best3 (Bestrophin 3)","reagent no.":1,"firefly Hh reporter signal, replicate 1":66146,"Renilla reference signal, replicate 1":3366,"Renilla reference signal, replicate 2":2224}
{"target gene":"asRNA:CR43299 + CG8119","reagent no.":1,"firefly Hh reporter signal, replicate 1":72285,"firefly Hh reporter signal, replicate 2":1.63e5,"Renilla reference signal, replicate 1":2827,"Renilla reference signal, replicate 2":6632}

A stretch of the results above:
{"target gene":"CG13581","reagent no.":1,"firefly Hh reporter signal, replicate 1":74902,"firefly Hh reporter signal, replicate 2":61127,"Renilla reference signal, replicate 1":1517,"Renilla reference signal, replicate 2":5494}
{"target gene":"CG34232","reagent no.":1,"firefly Hh reporter signal, replicate 1":1.43e5,"firefly Hh reporter signal, replicate 2":1.91e5,"Renilla reference signal, replicate 1":3939,"Renilla reference signal, replicate 2":9819}
